## Results from one PubChem assay

The results are deposited in PubChem (AID977624; Broad Institute, 2014).

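Wild-type E. coli carrying GFP, grown in the same well as an h34 humanized-ribosome RFP strain; GFP fluorescence for growth, read after 24 h. The value is the change in activity at the highest dose tested; more negative means stronger inhibition. Active requires GFP to fall at least twice as much as RFP with growth loss below a set limit; inconclusive means no clear call; everything else is inactive.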

These entries are mostly ones the record files as inconclusive; other results of the assay are not listed here.

{"smiles": "Cc1ccc(C)c(N2CCN(C(=O)CCS(=O)(=O)c3ccc4c(c3)oc(=O)n4C)CC2)c1", "condition": "at 50 µM (top of the series)", "activity change": "18.05", "outcome": "inconclusive"}
{"smiles": "CCc1cccc(NC(=O)c2ccc3c(=O)n4c(nc3c2)CCCCC4)c1", "condition": "at 50 µM (top of the series)", "activity change": "-10.64", "outcome": "inconclusive"}
{"smiles": "O=C(Nc1nc(-c2ccc3ccccc3c2)cs1)C1CCN(S(=O)(=O)c2cccs2)CC1", "condition": "at 50 µM (top of the series)", "activity change": "43.59", "outcome": "inconclusive"}
{"smiles": "O=C(CCNC(=O)c1ccco1)Nc1cccc(Br)c1", "condition": "at 50 µM (top of the series)", "activity change": "-5.865", "outcome": "inconclusive"}
{"smiles": "Nc1ccccc1Sc1c[nH]c2ccccc12", "condition": "at 50 µM (top of the series)", "activity change": "-1.375", "outcome": "inactive"}
{"smiles": "Cc1ccc(NCC(=O)c2ccc(C)cc2)cc1", "condition": "at 50 µM (top of the series)", "activity change": "33.98", "outcome": "inconclusive"}
{"smiles": "CCN=C1NN=C(c2ccc(C)cc2)CS1", "condition": "at 50 µM (top of the series)", "activity change": "19.72", "outcome": "inconclusive"}
{"smiles": "COC(=O)c1cc(S(=O)(=O)N(C)C2CCCCC2)oc1C", "condition": "at 50 µM (top of the series)", "activity change": "-2.751", "outcome": "inconclusive"}
{"smiles": "COCCCNc1ccn2nc(-c3ccccc3)cc2n1", "condition": "at 50 µM (top of the series)", "activity change": "18.11", "outcome": "inconclusive"}
{"smiles": "O=C(COC(=O)[C@@H]1CCCN1S(=O)(=O)c1ccccc1F)c1ccccc1", "condition": "at 50 µM (top of the series)", "activity change": "5.093", "outcome": "inconclusive"}
{"smiles": "O=C(Cc1cccc(NC(=O)C2CCN(C(=O)C3CCCCC3)CC2)c1)Nc1cccc(C(=O)N2CCCC2)c1", "condition": "at 50 µM (top of the series)", "activity change": "7.459", "outcome": "inconclusive"}
{"smiles": "Cc1ccc2cccc(OCc3ccccc3)c2n1", "condition": "at 50 µM (top of the series)", "activity change": "-32.35", "outcome": "inconclusive"}
{"smiles": "O=C(c1cccs1)c1c[nH]cc1-c1ccccc1", "condition": "at 50 µM (top of the series)", "activity change": "19.83", "outcome": "inconclusive"}
{"smiles": "CC(OC(=O)COc1ccccc1)C(=O)NC1CCCC1", "stereo": "centres undefined", "condition": "at 50 µM (top of the series)", "activity change": "9.082", "outcome": "inactive"}
{"smiles": "Cc1ccc(CSCC(=O)Nc2ccccc2F)cc1", "condition": "at 50 µM (top of the series)", "activity change": "9.041", "outcome": "inconclusive"}
{"smiles": "CC1=CC(C)(C)N(C(=O)CSc2nnc(C)s2)c2ccc(C)cc21", "condition": "at 50 µM (top of the series)", "activity change": "21.59", "outcome": "inconclusive"}
{"smiles": "Cc1cccc(N2Cc3ccc(Br)cc3C2)c1", "condition": "at 50 µM (top of the series)", "activity change": "20.75", "outcome": "inconclusive"}
{"smiles": "c1ccc(CSCc2ccccc2)cc1", "condition": "at 50 µM (top of the series)", "activity change": "20.42", "outcome": "inconclusive"}

The last 2 entries again:

- Cc1cccc(N2Cc3ccc(Br)cc3C2)c1 [at 50 µM (top of the series)] : activity change 20.75 (inconclusive)
- c1ccc(CSCc2ccccc2)cc1 [at 50 µM (top of the series)] : activity change 20.42 (inconclusive)